These are yes or no findings as the source states them, for the method shown. Binding seen in cells or lysates may run through a third protein. For part of these data: Binding can be weak; no strength is given. For part of these data: Tags and fused reporters may be left off the sequences shown.
What was measured:
Test in all cases: co-IP
[1] = biological target: T1, ribonucleic acid export 1 (RAE1) (human (endogenous in 293T)) (UniProt P78406)
T1 sequence: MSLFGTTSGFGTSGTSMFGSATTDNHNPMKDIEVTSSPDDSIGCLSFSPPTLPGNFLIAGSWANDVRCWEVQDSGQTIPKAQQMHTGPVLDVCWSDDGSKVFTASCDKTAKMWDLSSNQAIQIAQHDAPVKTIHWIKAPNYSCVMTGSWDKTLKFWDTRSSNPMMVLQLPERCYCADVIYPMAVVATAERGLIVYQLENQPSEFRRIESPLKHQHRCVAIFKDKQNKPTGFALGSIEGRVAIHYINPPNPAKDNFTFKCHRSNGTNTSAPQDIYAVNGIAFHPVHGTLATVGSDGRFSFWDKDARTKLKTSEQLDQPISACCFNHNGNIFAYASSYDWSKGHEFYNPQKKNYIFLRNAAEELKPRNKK

[2] = biological target: T2, FLAG-tagged leader (L) protein of Theiler's murine encephalomyelitis virus (Theiler's murine encephalomyelitis virus) (UniProt P13899)
T2 sequence: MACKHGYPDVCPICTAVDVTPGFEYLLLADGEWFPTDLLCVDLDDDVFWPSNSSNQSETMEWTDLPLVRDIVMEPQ

[3] = biological target: FLAG-tagged leader (L) protein of Boone cardiovirus (Boone cardiovirus)

Molecule: GFP fused to the BCV L^62-81 NPC targeting peptide (Boone cardiovirus) (domain or fragment)
- binding [1]: binds

Molecule: nucleoporin 98 (NUP98) (human (endogenous in 293T))
- binding [2]: no binding

B1: ribonucleic acid export 1 (RAE1) (protein, UniProt P78406 1-368)
chain: T1 sequence
- binding [3]: binds

Reference: article PMC12548433
